Experimental data reported in article PMC9830914, “Differential effects of mutations of POPDC proteins on heteromeric interaction and membrane trafficking” (Acta Neuropathologica Communications, 2023).
No constants are given. Whether binding was seen depends on the method and setting. Binding seen in cells or lysates may run through a third protein. A result given as binding can be weak or reduced; the word gives no strength. Where a sequence is shown, tags or fusion partners need not be part of it.

Tests used:
Assay in all cases: co-IP; COS-7 cells transiently expressing epitope-tagged POPDC constructs, 1% Triton X-100 lysis buffer; c-Myc Tag or HA Tag IP/Co-IP kit; Western blot
[1] = molecular target: POPDC1-MYC truncation Δ245 (not stated (human or mouse cDNA cloned))
[2] = molecular target: POPDC1-MYC truncation Δ116 (not stated (human or mouse cDNA cloned))
[3] = molecular target: POPDC1-MYC truncation Δ236 (not stated (human or mouse cDNA cloned))
[4] = molecular target: POPDC1-MYC truncation Δ172 (not stated (human or mouse cDNA cloned))

Measured: binding

B1: POPDC2-FLAG (protein, UniProt Q9HBU9 1-364)
chain: MSANSSRVGQLLLQGSACIRWKQDVEGAVYHLANCLLLLGFMGGSGVYGCFYLFGFLSAGYLCCVLWGWFSACGLDIVLWSFLLAVVCLLQLAHLVYRLREDTLPEEFDLLYKTLCLPLQVPLQTYKEIVHCCEEQVLTLATEQTYAVEGETPINRLSLLLSGRVRVSQDGQFLHYIFPYQFMDSPEWESLQPSEEGVFQVTLTAETSCSYISWPRKSLHLLLTKERYISCLFSALLGYDISEKLYTLNDKLFAKFGLRFDIRLPSLYHVLGPTAADAGPESEKGDEEVCEPAVSPPQATPTSLQQTPPCSTPPATTNFPAPPTRARLSRPDSGILASRIPLQSYSQVISRGQAPLAPTHTPEL
binds: all assays above
